# Laboratory results taken from PubChem BioAssay AID1487 (National Center for Advancing Translational Sciences (NCATS), 2009).
# “And” between values parts separate entries of the source, which are not always exact repeats. Equal values may be shown once. The list shows a part of the results. These are further read-outs of the screen, such as a control signal, another cell line or another target. No call is given for them. Most of these compounds were active or inconclusive in the main read-out, so they are no random draw. The note in brackets gives the kind of curve behind each potency; many fits are weak.
# Assay: qHTS Assay for Modulators of Lamin A Splicing
# Conditions: HeLa LMNA splicing GFP/RFP minigene ratio, 48 h
# Summary of the method: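 Read-out is the ratio of GFP to DsRed2 object intensity, acquired by 488 nm laser-scanning cytometry on HeLa lamin A-EGFP minigene reporter cells. Compound incubation 48 hrs at 37 °C in Opti-MEM with 2% FBS; DMSO 0.5% final.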
# [1] = measured here: RFP viability control channel
# [2] = measured here: GFP splicing reporter channel
Structure (SMILES),AC50 [1],AC50 [2]
O=C(CSc1nnc(Cc2cccs2)n1CCc1ccccc1)N1CCCc2ccccc21,"35.5 µM [rising, single point]",–
CCOc1ccc2nc(SC3CC(=O)N(c4ccc(OC)cc4)C3=O)sc2c1 (stereo not given),"35.5 µM [falling, partial curve]","25.1 µM [falling, single point]"
COc1ccccc1NC(=O)CSc1nnnn1C,"5.62 µM [rising, single point]",–
Cc1csc2nc(COC(=O)c3ccccc3NC(=O)COc3ccccc3F)cc(=O)n12,"35.5 µM [falling, single point]","35.5 µM [falling, single point]"
O=C(c1ccc(NS(=O)(=O)c2cccs2)cc1)N1CCCCC1,"1.26 µM [rising, partial curve]",–
Cc1ccc2nc(N3CCN(Cc4ccc(F)cc4)C3=O)c(C)cc2c1,"14.1 µM [rising, partial curve]","7.94 µM [rising, partial curve, poor fit]"
Cc1ccccc1-c1ccc2ncnc(N3CCN(C)CC3)c2c1,"3.98 µM [falling, partial curve, poor fit]","3.16 µM [falling, partial curve, poor fit]"
COC(=O)c1c(NC(=O)CN2CCN(Cc3ccc4c(c3)OCO4)CC2)sc(C)c1C,–,"11.2 µM [rising, single point]"
O=c1c2cn[nH]c2nc(SCc2cccc(Br)c2)n1-c1ccc(Cl)cc1,–,"35.5 µM [falling, partial curve, poor fit]"
O=C(OCC(=O)c1cccs1)c1ccc([N+](=O)[O-])o1,"0.891 µM [falling, full curve, poor fit]",–
C[C@H]1CS(=O)(=O)CCN1/N=C\c1ccc([N+](=O)[O-])o1,"0.00316 µM [falling, full curve]","0.00316 µM [falling, full curve]"
Cc1cccc(C)c1NS(=O)(=O)c1ccc(F)cc1,–,"35.5 µM [rising, partial curve]"
CCN1CCN(c2cc3c(cc2F)c(=O)c(S(=O)(=O)c2ccc(OC)cc2)cn3CC)CC1,–,"0.0891 µM [falling, partial curve]"
CSc1nc(SCC(N)=O)c2c3c(sc2n1)CN(C)CC3,"15.8 µM [rising, single point]","17.8 µM [rising, single point]"
COc1cc2nc(/C=C/c3cc(OC)c(OC)c(OC)c3)sc2cc1SC,"4.47 µM [rising, single point]","35.5 µM [falling, single point]"
O=Cc1cn(CC(=O)N2CCCc3ccccc32)c2ccccc12,"31.6 µM [rising, single point]",–
CCOc1cc(CNCCSc2nnnn2C)cc(Br)c1OCc1ccccc1,"20 µM [rising, single point]",–
O=C(CSc1nnc(-c2ccncc2)o1)N1CCc2ccccc2C1,"2.24 µM [rising, single point]",–
CCC(C)C(=O)Nc1nc2ccc(S(C)(=O)=O)cc2s1 (stereo not given),–,"10 µM [falling, partial curve, poor fit]"

Structure (SMILES),AC50 [1],AC50 [2]
CCN1CCN(c2oc(-c3ccc(COc4ccc(C)cc4)o3)nc2C#N)CC1,–,"10 µM [falling, partial curve, poor fit]"
CCOC(=O)Cc1csc(NC(=O)Nc2cccc(Cl)c2)n1,"35.5 µM [rising, single point]","15.8 µM [rising, single point]"
Cc1ccc(NC(=O)c2cc(S(=O)(=O)NCCc3ccccc3)ccc2F)cc1Cl,"22.4 µM [falling, single point]","35.5 µM [falling, single point]"
O=C(c1ccc2c(=O)n(-c3ccccc3)c(=O)[nH]c2c1)N1CCCCC1,"31.6 µM [rising, single point]",–
CCN1C(=O)/C(=C/N(C(C)=O)c2ccccc2)N(c2ccccc2)C1=S,"31.6 µM [rising, single point]",–
CCOC(=O)N1CCN(C(=O)CSc2cc(C)nc3c(-c4ccccc4OC)c(C)nn23)CC1,"8.91 µM [rising, partial curve, poor fit]",–
Oc1ccc(/C=C/c2ccc3ccccc3n2)cc1,–,"20 µM [falling, partial curve, poor fit]"
Cc1cccc(N2CCN(C(=O)Cc3c(C(=O)O)[nH]c4ccc(Cl)cc34)CC2)c1C,"17.8 µM [rising, single point]",–
Cc1ccc(-c2cc(C(=O)N/N=C/c3c(C)nn(-c4ccccc4)c3C)n[nH]2)s1,–,"22.4 µM [falling, partial curve]"
O=C(/C(=N\Nc1ccc([N+](=O)[O-])cc1)Sc1nnnn1-c1ccccc1)c1ccccc1,"7.08 µM [rising, partial curve]",–
CCC(=O)N1CCCc2cc(S(=O)(=O)N3CCN(c4ccccn4)CC3)ccc21,"14.1 µM [rising, single point]",–
O=C(NCc1ccco1)c1ccc(Cn2c(=S)[nH]c3ccccc3c2=O)cc1,"14.1 µM [falling, single point]",–
O=C(CSc1ccccc1)Nc1ccccc1C(=O)O,"35.5 µM [rising, single point]",–
CC(C)c1onc(C(=O)NCc2cccs2)c1[N+](=O)[O-],–,"1.12 µM [rising, partial curve]"
CCOc1ccccc1CNC(=O)c1cc2n(n1)CCCN(Cc1ccc(C)cc1)C2=O,"35.5 µM [falling, single point]","35.5 µM [falling, single point]"
COc1ccccc1-c1cc(SC)c(C#N)c(=O)o1,"31.6 µM [rising, single point]",–
NC(=O)Cc1nc2scc(-c3ccc(Cl)cc3)c2c(=O)[nH]1,–,"1.26 µM [rising, partial curve]"
COC(=O)c1ccccc1NC(=O)c1ccc2nccnc2c1,"4.47 µM [rising, single point]",–
Cc1ccc(-n2c(C)cc(/C=N/NC(=O)CC3(C)OCCO3)c2C)c(C)c1,"25.1 µM [rising, single point]",–

# Two entries from above, reformatted:
Structure (SMILES)	AC50 [1]	AC50 [2]
COC(=O)c1c(NC(=O)CN2CCN(Cc3ccc4c(c3)OCO4)CC2)sc(C)c1C	–	11.2 µM [rising, single point]
COc1cc2nc(/C=C/c3cc(OC)c(OC)c(OC)c3)sc2cc1SC	4.47 µM [rising, single point]	35.5 µM [falling, single point]

# Further records follow.

Structure (SMILES),AC50 [1],AC50 [2]
O=C(Nc1ccc(OC(F)(F)F)cc1)c1nc2ccccc2nc1N1CCCCC1,"35.5 µM [falling, single point]","35.5 µM [falling, single point]"
C/C(=N\NC(=O)C1(C)CC1(Br)Br)c1cccc(NC(=O)C2CCC2)c1 (stereo not given),"0.251 µM [rising, partial curve]",–
O=S(=O)(Nc1ccc2nc(-c3ccco3)[nH]c2c1)c1ccccc1,"14.1 µM [rising, single point]",–
COC(=O)Cc1ccc(Oc2ncc(C(F)(F)F)cc2Cl)cc1,"6.31 µM [falling, partial curve, poor fit]","3.98 µM [falling, partial curve, poor fit]"
CC(CCc1ccccc1)NC(=O)c1ccc(Cl)nc1 (stereo not given),"6.31 µM [falling, single point]",–
Cc1ccc(-c2ccc(C(=O)O)[nH]2)cc1,–,"35.5 µM [rising, single point]"
COc1ccc(COc2ccsc2C(=O)Nc2ccc(Cl)cc2)cc1,"14.1 µM [falling, single point]","35.5 µM [falling, single point]"
O=C(O)CP(=O)(O)O,"0.891 nM [falling, full curve, poor fit] and 398 nM [falling, full curve]","0.447 µM [falling, full curve, poor fit]"
Cc1cc(C)cc(N(C(=O)c2cc3ccccc3oc2=O)C2C=CS(=O)(=O)C2)c1 (stereo not given),"2 µM [rising, partial curve, poor fit]",–
CCOC(=O)c1cc(CC)sc1NC(=O)COc1ccc2c(C)cc(=O)oc2c1,"17.8 µM [rising, partial curve, poor fit]",–
O=[N+]([O-])c1c(NCCO)cc(Sc2nc3ccccc3s2)c2nonc12,"15.8 µM [falling, partial curve]","15.8 µM [falling, single point]"
O=C(CN1CCC(C(=O)c2ccc(Cl)cc2)CC1)Nc1ccc2c(c1)OCCO2,"22.4 µM [rising, single point]",–
O=S(=O)(c1ccc2c(c1)OCO2)N1CCN(c2nnnn2-c2ccccc2)CC1,"0.0501 µM [rising, full curve, poor fit]","0.0501 µM [rising, full curve, poor fit]"
CCN(C(=O)c1coc(=O)c(Br)c1)c1ccc2c(c1)OCO2,"2.82 µM [falling, partial curve]",–
Cc1ccc(S(=O)(=O)N(C)CC(=O)OCC(=O)N2CC(=O)Nc3ccccc32)cc1,"0.0251 µM [rising, full curve, poor fit]",–
COc1cccc(/C=N/Nc2ncnc3c2ncn3Cc2ccccc2)c1O,"5.62 µM [rising, full curve]","1.78 µM [rising, full curve, poor fit]"
N#Cc1nc(Cc2ccccc2)oc1N1CCC(Cc2ccccc2)CC1,"22.4 µM [rising, single point]","11.2 µM [rising, partial curve, poor fit]"
O=C(COc1ccc(Br)cc1)NNC(=S)NC(=O)c1ccccc1[N+](=O)[O-],"35.5 µM [rising, single point]","1 µM [falling, full curve, poor fit]"
